The values below come from PMC5472792, “Bub1 positions Mad1 close to KNL1 MELT repeats to promote checkpoint signalling” (Nature Communications, 2017).

Sequences of proteins named here, by UniProt entry; tags and fusion partners are left off.
UniProt O43684: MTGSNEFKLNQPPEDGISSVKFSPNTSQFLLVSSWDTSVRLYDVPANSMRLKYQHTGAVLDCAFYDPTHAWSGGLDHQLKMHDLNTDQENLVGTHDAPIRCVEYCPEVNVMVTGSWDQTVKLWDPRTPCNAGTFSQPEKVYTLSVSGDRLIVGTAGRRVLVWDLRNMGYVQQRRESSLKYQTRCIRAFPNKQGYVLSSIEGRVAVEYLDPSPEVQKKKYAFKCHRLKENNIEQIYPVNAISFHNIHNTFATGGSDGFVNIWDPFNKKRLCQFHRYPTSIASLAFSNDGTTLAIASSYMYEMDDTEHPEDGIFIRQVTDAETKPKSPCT

Assay [1] concerns the target T1, His-Strep-Mad1 597–718 (human) (UniProt Q9Y6D9).
T1 sequence: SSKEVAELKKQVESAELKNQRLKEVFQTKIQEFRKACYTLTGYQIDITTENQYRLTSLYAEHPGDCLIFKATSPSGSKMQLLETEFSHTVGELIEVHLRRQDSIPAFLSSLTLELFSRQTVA
The assay can be described thus: pull-down; 8 μg His-Strep-Mad1 597–718 incubated with 1 μg FLAG-Bub1 146–553/Bub3 complexes, 30 mM Tris pH 7.4, 50 mM NaCl, 0.1 mM DTT, 30 min at 30 °C; captured on Strep-Tactin beads, washed with 120 mM NaCl, 0.1% NP-40, eluted with desthiobiotin; blot for FLAG; both purified.

The target in assay [2] is T2, FLAG-Bub1 146–553 (human) (UniProt O43683).
T2 sequence: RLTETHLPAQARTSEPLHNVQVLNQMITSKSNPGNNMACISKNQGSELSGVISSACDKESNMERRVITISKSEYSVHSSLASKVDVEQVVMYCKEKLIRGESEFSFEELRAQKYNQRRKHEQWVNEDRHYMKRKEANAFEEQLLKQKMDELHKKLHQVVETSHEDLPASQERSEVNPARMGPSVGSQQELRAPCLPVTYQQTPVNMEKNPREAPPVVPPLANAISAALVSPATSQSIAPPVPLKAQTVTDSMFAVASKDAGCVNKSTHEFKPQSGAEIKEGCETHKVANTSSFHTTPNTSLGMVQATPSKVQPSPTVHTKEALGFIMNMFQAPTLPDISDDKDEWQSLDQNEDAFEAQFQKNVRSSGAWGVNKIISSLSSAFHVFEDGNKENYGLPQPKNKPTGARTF
Put plainly: co-IP; anti-FLAG beads on lysate of HEK293 cells co-transfected with FLAG Bub1 146–553 and untagged Bub3; 350 mM NaCl, 50 mM Tris pH 8.0, 0.05% NP40; eluted with FLAG peptide.

Assay [3] concerns the target T3, FLAG-Bub1 146–553 ΔCD1 (human) (UniProt O43683).
T3 sequence: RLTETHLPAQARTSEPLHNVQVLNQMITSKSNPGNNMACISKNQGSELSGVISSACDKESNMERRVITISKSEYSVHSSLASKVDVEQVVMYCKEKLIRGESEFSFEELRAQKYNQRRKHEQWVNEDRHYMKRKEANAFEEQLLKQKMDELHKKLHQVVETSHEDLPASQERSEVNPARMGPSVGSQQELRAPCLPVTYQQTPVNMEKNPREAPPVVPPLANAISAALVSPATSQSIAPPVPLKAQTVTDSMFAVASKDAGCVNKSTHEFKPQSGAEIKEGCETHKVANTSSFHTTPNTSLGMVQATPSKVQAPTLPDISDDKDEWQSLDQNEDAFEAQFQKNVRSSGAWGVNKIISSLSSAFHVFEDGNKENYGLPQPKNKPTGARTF
Described as above.

The target in assay [4] is T4, control CD1 peptide with mutations of residues 461–465 to Ala (human) (UniProt O43683).
T4 sequence (peptide, biotin on the N-terminus; norleucine (Nle) instead of methionine): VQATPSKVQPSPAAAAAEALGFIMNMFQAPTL
The assay can be described thus: SPR; N-terminally biotinylated Bub1 peptides captured (~50 RU) on a streptavidin-coated CM5 chip, Mad1 proteins injected; Biacore T200, 25 °C; 25 mM Tris pH 7.8, 150 mM NaCl, 10 mM MgCl2, 0.25 M TCEP, 0.005% Surfactant P-20; steady-state affinity model; both purified.

No constants are given. Whether binding was seen depends on the method and setting. For some of these results: In cells and extracts the contact can be indirect. Some entries that bind do so weakly or less than the wild type. Sequences can lack the tags named with a protein.

With “FLAG-Bub1 146–553ΔCD1/Bub3 complex (from UniProt O43683 146-553; O43684 1-328)”, the binding entry in assay [1] is listed as “no binding”.

As to Bub3 (from UniProt O43684 1-328), the binding result in assay [2] and in assay [3] was “binds” in each case.

B1: His-Strep-Mad1 597–718 (domain or fragment, human, UniProt Q9Y6D9 597-718, looked up)
chain: SSKEVAELKKQVESAELKNQRLKEVFQTKIQEFRKACYTLTGYQIDITTENQYRLTSLYAEHPGDCLIFKATSPSGSKMQLLETEFSHTVGELIEVHLRRQDSIPAFLSSLTLELFSRQTVA
notes: composition confirmed by multi-angle light scattering; also called Mad1 C-terminal fragment; source: E. coli BL21(DE3), purified (HiTrap Ni column, Superdex 75)
For the molecule B1, the binding entry in assay [4] was “no binding (tested: 500 μM)”.
